10 substances from publication PMC5320500 can be followed below.

Chains of the proteins cited; added tags and fusions are not shown. Lines headed by an entry give the natural chain unless they say otherwise; changes in a name come on top.
UniProt Q5D869: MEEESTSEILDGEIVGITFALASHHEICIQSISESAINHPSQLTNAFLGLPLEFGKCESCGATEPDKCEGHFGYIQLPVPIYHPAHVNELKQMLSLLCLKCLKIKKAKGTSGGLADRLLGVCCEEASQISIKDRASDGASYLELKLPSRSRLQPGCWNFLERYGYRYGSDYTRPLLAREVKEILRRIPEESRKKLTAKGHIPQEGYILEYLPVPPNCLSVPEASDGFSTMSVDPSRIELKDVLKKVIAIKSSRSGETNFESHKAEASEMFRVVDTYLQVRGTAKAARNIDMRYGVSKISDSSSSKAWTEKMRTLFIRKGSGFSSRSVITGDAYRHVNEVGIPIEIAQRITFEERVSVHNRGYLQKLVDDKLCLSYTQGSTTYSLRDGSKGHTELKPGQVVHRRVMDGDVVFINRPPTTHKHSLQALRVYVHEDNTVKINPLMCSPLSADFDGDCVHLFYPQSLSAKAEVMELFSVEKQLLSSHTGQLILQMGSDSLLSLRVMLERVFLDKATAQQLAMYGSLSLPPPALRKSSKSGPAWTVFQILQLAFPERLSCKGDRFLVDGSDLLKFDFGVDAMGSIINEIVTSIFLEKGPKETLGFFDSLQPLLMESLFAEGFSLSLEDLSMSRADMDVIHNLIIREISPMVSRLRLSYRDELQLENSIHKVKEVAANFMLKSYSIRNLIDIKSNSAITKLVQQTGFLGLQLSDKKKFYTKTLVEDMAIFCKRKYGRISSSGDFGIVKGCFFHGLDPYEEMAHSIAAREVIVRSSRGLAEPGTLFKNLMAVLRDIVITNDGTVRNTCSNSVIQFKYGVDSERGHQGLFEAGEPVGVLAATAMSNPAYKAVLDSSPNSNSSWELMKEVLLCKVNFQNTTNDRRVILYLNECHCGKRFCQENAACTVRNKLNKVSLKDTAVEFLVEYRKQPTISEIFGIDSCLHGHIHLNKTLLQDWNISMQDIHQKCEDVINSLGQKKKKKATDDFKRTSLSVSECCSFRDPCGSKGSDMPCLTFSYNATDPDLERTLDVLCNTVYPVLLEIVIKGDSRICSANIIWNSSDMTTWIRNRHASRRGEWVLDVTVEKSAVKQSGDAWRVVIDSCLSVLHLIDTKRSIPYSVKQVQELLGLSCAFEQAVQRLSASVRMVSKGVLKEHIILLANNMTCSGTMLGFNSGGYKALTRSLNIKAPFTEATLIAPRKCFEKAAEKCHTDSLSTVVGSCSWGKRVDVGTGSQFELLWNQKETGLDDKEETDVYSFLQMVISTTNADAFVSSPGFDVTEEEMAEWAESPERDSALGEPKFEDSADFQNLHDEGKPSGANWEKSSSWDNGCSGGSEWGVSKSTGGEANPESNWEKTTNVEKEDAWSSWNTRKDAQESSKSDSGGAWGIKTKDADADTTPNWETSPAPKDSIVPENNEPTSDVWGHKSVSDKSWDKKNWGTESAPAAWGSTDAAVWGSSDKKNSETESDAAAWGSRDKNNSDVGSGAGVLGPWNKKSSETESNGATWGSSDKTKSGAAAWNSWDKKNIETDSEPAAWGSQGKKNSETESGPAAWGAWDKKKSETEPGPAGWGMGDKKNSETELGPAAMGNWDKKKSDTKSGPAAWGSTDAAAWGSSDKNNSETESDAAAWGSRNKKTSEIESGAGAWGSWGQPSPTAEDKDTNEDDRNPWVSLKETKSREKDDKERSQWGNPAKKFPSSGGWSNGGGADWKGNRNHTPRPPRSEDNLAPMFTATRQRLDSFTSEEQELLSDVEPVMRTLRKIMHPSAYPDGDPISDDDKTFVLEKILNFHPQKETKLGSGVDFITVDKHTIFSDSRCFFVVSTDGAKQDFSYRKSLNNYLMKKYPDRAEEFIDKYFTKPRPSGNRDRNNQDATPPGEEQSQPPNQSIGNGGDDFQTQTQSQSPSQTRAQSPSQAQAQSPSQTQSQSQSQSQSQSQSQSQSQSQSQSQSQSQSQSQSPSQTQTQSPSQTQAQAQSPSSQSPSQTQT
UniProt P22953: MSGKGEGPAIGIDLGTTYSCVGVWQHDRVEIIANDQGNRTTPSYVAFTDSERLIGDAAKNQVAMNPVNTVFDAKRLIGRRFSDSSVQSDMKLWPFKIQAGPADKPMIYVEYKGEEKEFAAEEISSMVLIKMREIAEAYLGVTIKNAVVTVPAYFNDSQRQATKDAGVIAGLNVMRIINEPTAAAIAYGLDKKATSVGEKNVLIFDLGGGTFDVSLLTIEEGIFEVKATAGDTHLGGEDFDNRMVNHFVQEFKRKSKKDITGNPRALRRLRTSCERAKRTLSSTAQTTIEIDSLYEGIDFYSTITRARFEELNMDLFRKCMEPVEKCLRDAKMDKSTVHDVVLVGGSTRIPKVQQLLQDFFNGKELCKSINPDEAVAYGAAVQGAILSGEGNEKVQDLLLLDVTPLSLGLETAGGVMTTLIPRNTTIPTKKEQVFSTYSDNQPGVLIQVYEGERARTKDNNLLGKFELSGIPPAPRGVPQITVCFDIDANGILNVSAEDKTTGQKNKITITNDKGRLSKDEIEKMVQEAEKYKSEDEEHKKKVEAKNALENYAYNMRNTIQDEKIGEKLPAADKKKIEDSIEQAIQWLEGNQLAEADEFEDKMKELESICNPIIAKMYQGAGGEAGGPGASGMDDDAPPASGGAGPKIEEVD
UniProt O65719: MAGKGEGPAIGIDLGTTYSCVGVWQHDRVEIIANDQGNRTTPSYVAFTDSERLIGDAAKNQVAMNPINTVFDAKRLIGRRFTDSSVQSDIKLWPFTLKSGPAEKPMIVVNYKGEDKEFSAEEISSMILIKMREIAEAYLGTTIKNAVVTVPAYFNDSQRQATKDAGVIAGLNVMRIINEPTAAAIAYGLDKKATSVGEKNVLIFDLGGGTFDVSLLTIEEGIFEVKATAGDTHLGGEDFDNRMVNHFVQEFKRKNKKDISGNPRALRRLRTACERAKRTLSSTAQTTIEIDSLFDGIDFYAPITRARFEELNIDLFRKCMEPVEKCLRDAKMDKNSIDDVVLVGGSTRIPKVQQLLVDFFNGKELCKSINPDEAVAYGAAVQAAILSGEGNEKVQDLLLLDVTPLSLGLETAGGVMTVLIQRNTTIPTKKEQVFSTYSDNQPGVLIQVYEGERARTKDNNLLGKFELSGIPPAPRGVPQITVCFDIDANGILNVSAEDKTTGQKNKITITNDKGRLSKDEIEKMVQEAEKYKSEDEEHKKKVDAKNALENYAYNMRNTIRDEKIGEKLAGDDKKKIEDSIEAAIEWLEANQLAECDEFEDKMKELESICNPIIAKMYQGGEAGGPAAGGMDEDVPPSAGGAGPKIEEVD
UniProt P55737: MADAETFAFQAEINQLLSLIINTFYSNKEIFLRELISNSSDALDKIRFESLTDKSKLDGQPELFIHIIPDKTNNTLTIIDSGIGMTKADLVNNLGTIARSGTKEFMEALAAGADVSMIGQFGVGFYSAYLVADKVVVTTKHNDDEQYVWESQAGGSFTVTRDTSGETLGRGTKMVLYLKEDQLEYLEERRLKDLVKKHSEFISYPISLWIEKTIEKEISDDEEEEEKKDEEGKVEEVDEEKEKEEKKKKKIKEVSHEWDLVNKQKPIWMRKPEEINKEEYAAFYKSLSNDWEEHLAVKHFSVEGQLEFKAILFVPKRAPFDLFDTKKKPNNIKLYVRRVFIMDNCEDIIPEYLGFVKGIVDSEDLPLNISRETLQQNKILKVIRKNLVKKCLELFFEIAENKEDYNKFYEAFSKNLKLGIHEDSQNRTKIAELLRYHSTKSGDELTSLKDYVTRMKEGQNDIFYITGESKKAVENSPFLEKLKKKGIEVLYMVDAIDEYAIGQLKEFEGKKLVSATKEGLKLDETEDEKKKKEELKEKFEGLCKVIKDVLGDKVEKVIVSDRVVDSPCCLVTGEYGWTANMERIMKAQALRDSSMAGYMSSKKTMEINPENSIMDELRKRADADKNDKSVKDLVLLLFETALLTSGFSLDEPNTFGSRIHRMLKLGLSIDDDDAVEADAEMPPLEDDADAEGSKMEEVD
UniProt Q9M1J2: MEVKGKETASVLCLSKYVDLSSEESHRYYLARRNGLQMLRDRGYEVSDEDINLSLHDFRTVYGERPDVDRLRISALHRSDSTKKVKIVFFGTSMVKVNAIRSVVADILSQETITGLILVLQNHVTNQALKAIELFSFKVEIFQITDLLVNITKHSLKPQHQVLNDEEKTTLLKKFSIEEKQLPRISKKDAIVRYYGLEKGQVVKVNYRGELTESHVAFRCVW
UniProt Q9FJ98: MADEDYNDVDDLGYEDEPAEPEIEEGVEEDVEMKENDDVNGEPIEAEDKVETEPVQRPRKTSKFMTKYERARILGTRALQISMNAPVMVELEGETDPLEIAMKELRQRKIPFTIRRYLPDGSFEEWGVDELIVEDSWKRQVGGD
UniProt Q9SJ96: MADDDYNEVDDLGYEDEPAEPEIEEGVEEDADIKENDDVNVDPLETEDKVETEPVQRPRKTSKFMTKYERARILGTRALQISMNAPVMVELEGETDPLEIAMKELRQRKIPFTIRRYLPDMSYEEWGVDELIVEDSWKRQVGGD
UniProt Q8LFJ6: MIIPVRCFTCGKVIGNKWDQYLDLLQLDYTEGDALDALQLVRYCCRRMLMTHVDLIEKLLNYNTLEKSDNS
UniProt Q9FLM8: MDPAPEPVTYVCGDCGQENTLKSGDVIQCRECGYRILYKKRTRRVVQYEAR
UniProt Q9FMR9: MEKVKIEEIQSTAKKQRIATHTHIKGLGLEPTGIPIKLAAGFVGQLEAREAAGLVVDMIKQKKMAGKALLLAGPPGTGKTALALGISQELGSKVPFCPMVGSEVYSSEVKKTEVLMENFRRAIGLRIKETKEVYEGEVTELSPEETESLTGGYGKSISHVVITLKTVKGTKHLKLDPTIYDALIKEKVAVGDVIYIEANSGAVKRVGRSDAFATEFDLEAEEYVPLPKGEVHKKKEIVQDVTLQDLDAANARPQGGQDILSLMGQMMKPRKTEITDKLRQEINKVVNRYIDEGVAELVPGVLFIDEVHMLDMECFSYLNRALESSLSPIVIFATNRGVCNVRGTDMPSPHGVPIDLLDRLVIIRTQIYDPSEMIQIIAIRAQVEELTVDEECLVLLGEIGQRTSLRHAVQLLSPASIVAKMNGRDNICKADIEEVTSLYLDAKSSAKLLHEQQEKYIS
UniProt Q9SL67: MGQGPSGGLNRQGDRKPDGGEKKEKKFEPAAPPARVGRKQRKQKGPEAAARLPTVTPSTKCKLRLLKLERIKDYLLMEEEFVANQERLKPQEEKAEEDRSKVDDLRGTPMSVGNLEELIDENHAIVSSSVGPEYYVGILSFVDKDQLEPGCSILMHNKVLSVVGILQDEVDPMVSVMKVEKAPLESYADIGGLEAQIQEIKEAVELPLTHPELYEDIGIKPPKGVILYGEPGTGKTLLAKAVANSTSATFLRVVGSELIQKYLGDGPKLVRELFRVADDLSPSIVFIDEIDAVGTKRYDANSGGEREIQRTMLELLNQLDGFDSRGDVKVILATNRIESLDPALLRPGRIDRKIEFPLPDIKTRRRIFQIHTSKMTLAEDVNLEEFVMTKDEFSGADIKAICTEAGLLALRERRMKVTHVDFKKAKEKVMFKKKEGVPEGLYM

Results are given in words; binding and its absence hold for the method and conditions named. Binding seen in cells or lysates may run through a third protein. A yes stands for co-enrichment or nearness to the bait. Other partners may have been found.

Test [1] concerns the target NRPE1-FLAG (largest subunit of nuclear RNA polymerase V) (Arabidopsis thaliana) (UniProt Q5D869). Briefly: affinity purification with mass spectrometry; dimethylated anti-FLAG beads; 14N/15N metabolic labelling of NRPE1-FLAG transgenic against wild-type Col-0 seedlings, forward and reciprocal, two biological duplicates; ratios by Mascot Distiller.
Test [2] has the same target. Briefly: affinity purification with mass spectrometry; anti-FLAG M2 beads (non-methylated, Control 1 and 2, or dimethylated) in lysate of 14-day NRPE1-FLAG transgenic Arabidopsis seedlings, 4 °C, 3 h; on-bead digestion by trypsin, or by Lys-C and then trypsin; LC MS/MS; three biological repeats.
The target of test [3] is NRPE1-FLAG (Arabidopsis thaliana) (UniProt Q5D869). As to the kind of experiment: affinity purification with mass spectrometry; dimethylated anti-FLAG antibody purification with forward and reciprocal 14N/15N metabolic labelling of Col-0 wild-type and NRPE1-FLAG transgenic seedlings; H/L ratios by LC MS/MS to tell specific from non-specific proteins.

For the substance HSP70-1 (from UniProt P22953 1-651), the binding result in test [1] is given as “binds”.

HSP70-3 (from UniProt O65719 1-649): the binding result in test [1] is “binds”.

For HSP81-2 (from UniProt P55737 1-699), the binding entry in test [1] is listed as “binds”.

Regarding NRPE5 (from UniProt Q9M1J2), the binding result in test [2] was “binds”.

Consider NRPE6a (from UniProt Q9FJ98 1-144), for which, in test [2], the binding result is given as “binds”.

As for NRPE6b (from UniProt Q9SJ96 1-144), the binding result in test [2] is reported as “binds”.

Turning to NRPE10 (from UniProt Q8LFJ6 1-71), in test [2], the binding entry was “binds”.

Turning to NRPE12 (from UniProt Q9FLM8 1-51), the binding entry in test [2] is on record as “binds”.

Take “RuvB-like protein 1 (from UniProt Q9FMR9 1-458)”: the binding result in test [3] is recorded as “binds”.

Regarding “regulatory particle AAA-ATPase 2B (from UniProt Q9SL67 1-443)”, the binding result in test [3] was “binds”.
